One substance from patent US20070128627A1 can be followed below.

The chains behind the UniProt entries cited, without tags or fusion partners. Residues count along the entry.
UniProt P06536: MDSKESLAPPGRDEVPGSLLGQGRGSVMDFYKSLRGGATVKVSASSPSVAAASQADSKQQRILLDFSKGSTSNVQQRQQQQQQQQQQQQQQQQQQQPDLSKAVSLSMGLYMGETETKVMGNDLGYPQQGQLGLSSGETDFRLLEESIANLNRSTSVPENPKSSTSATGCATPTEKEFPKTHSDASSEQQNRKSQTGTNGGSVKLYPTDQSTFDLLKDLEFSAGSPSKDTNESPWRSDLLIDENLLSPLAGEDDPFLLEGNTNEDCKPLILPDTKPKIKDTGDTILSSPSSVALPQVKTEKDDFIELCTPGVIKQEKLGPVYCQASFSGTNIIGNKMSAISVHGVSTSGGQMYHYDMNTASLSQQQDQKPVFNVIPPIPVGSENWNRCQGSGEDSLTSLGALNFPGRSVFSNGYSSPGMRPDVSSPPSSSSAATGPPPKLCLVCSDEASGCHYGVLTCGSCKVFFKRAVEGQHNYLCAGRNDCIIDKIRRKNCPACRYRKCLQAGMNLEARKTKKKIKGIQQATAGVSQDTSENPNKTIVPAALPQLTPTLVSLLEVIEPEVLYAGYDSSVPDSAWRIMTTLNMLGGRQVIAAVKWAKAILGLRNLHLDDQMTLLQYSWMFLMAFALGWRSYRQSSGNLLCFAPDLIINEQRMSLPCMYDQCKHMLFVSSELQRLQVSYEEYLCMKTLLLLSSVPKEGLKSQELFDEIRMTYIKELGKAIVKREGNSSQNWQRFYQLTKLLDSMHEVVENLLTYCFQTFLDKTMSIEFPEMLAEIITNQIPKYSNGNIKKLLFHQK
UniProt Q61026, residues 5-1462: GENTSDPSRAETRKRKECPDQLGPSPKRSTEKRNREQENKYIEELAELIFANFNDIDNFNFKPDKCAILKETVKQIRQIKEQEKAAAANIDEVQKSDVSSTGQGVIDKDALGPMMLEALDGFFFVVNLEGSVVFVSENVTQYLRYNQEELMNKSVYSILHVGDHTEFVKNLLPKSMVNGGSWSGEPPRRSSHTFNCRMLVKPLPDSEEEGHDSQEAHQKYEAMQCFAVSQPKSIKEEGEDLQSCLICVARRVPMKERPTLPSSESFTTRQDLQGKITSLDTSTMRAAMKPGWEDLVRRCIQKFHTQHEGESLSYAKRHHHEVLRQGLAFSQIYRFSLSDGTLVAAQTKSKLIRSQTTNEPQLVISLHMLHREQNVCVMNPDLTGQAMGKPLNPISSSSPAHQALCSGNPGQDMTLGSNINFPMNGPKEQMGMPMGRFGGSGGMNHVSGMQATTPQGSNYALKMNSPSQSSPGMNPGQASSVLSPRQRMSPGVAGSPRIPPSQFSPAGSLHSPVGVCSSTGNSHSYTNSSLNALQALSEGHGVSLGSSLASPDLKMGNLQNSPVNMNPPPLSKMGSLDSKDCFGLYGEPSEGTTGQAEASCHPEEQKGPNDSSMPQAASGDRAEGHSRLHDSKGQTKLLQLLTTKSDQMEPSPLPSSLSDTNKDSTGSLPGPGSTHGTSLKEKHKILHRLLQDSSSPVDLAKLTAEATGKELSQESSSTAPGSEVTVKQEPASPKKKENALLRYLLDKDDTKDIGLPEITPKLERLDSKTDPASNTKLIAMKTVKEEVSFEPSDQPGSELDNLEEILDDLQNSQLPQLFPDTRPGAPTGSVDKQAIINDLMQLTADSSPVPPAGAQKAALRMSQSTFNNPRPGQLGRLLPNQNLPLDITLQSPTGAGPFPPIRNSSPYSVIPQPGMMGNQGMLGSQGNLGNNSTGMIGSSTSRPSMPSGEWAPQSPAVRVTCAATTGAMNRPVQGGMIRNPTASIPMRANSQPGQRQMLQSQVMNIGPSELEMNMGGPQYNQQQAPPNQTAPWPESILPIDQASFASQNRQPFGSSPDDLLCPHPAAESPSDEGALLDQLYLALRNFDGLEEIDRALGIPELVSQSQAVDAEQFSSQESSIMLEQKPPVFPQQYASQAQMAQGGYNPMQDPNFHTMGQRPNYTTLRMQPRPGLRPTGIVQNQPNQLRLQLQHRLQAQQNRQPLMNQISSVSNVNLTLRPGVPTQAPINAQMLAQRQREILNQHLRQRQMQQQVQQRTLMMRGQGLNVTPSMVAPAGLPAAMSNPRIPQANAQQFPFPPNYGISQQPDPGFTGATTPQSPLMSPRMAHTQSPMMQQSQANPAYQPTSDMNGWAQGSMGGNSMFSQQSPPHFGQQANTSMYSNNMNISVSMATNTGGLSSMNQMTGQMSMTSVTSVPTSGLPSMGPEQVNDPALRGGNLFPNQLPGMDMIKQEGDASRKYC

The assay deals with wild type glucocorticoid receptor (GR), full length (UniProt P06536). In words: anti-HA co-immunoprecipitation from cotransfected Cos-7 cells (data not shown).

These are yes or no findings as the source states them, for the method shown. Binding seen in cells or lysates may run through a third protein. Some entries that bind do so weakly or less than the wild type.

On to HA/GRIP1 (from UniProt Q61026 5-1462), for which the binding entry is given as “binds”.
